This note sets out measurements from publication PMC12040169 (PLOS Biology, 2025).

This is one part of the list.

This assay has as its system T1, CTL2-GFP (C. trachomatis L2/434/Bu, GFP-expressing).
T1 construct: L2/434/Bu, GFP-expressing
The arrangement: species or system HeLa; Intracellular C. trachomatis growth in HeLa cells, bulk GFP fluorescence relative to DMSO. The settings on record: bulk GFP, single well; 28.5 h, 10 µM; inhibitor.
Consider `Cc1ncsc1C(=O)N1CCC[C@H](C(=O)c2cccs2)C1` [CBK284260], for which the “% of control remaining” value is reported as 109.1%.
Consider `Clc1ccc(CN2CCC(Oc3cncc(OCc4cccnc4)n3)C2)cc1Cl` (stereo not shown) [CBK084448], for which the “% of control remaining” value was determined as 117.086%.
To `Cc1ccc(OC(C)C(=O)Nc2ccccc2C(=O)N2CCN(C)CC2)cc1` (stereo not shown) [CBK269802] belongs 127.855%; to `CN(C)CCN(C)C(=O)c1cc(Br)cnc1N(C)S(C)(=O)=O` [CBK076476], 117.431%; to `O=c1n(-c2ccc(OC(F)(F)F)cc2)ccn1S(=O)(=O)c1ccc(Cl)c(Cl)c1` [CBK106656], 100.729%.
The figure for `c1ccc(-c2n[nH]cc2-c2cncn2CCCN2CCCCC2)cc1` [CBK281464] is 116.054%; for `CN1CCN(NC(=O)C23CCC(C)(C(=O)O2)C3(C)C)CC1` (stereo not shown) [CBK268285] it is 127.532%.
For `O=C(O)c1ccc(-c2ccc(/C=C/c3[nH]c(=O)[nH]c(=O)c3[N+](=O)[O-])o2)cc1Cl` [CBK267139], the “% of control remaining” value worked out at 184.387%.
To `N#Cc1c(Oc2cccc(Cl)c2Cl)cccc1C(F)(F)F` [CBK002592] belongs 105.965%; to `CCOCCCNC(=O)c1ncoc1-c1ccc(F)cc1` [CBK282353], 130.72%; to `CC(=O)Nc1ccc(CN(C)c2c(C)nc3c(OCc4ccc(C(F)(F)F)cc4)cccn23)cc1` [CBK147380], 107.879%.
On to `Cc1cccc(C2NS(=O)(=O)NC2=N)c1` (stereo not shown) [CBK263868], for which the “% of control remaining” value was 100%.
As for `O=C(OCc1ccccc1)N1CCC(c2nc3ccc(Br)cc3[nH]2)CC1` [CBK153849], the “% of control remaining” value came out at 133.725%.
With `Cc1cc2c(cc1C)NC(CC(=O)Nc1ccc(N(C)C)cc1)C(=O)N2` (stereo not shown) [CBK265595], the “% of control remaining” value is 100%.
To `O=C(Nc1cccc(F)c1C(=O)Nc1ccc(F)cc1F)c1cccs1` [CBK066849] belongs 139.109%; to `C=CCn1c(SCC(=O)Nc2sc3c(c2C#N)CCC3)nc2scc(-c3ccccc3)c2c1=O` [CBK264477], 126.138%; to `CN1CC(C(=O)N2CCC(c3cc4ccccc4cn3)CC2)CC1=O` (stereo not shown) [CBK284870], 115.218%.
The figure for `OC(COc1cccc2ccccc12)CN1CCN(C(c2ccccc2)c2ccccc2)CC1` (stereo not shown) [CBK007591] is 142.599%.
The figure for `CC(C(=O)N1CCC(c2nn(C)c3ncccc23)CC1)c1ccccc1` (stereo not shown) [CBK282166] is 115.66%; for `Cc1cc(C)c(S(=O)(=O)NCCN2CCN(S(=O)(=O)c3c(C)cc(C)cc3C)CC2)c(C)c1` [CBK265842] it is 118.886%.
Turning to `COCCNc1nc(-c2cccs2)cn2ccnc12` [CBK066408], the “% of control remaining” value is 144.736%.
The figure for `COc1ccc(CN2CC[C@H]3[C@@H](C2)[C@H](c2ccsc2)CN3C(=O)c2ccccc2)cc1` [CBK285614] is 80.4138%; for `O=C(Cc1cc(F)cc(F)c1F)Nc1cccc2[nH]ccc12` [CBK159650] it is 111.827%; for `c1cncc(CCOc2nccnc2N2CCNCC2)c1` [CBK014992] it is 141.642%.
The figure for `Cc1nc2ccccc2c(=O)n1CCC(=O)N1CCc2sccc2C1c1ccco1` (stereo not shown) [CBK285706] is 129.567%; for `CCOc1ccc(-c2ncncc2-c2ccccc2)c(O)c1` [CBK288111] it is 152.769%.
As for `CNS(=O)(=O)c1ccc(C)c(NC(C)=O)c1C` [CBK034426], the “% of control remaining” value is recorded as 127.15%.
To `CC(C)C(=O)Nc1ccc2ccc(-c3ccc(C(C)(C)C)cc3)nc2n1` [CBK073669] belongs 121.57%; to `O=C(Nc1nnc(-c2ccccc2)o1)C1COc2ccccc2O1` (stereo not shown) [CBK287596], 132.022%.
The figure for `Cc1n[nH]c(=O)c2c(C)noc12` [CBK001281] is 104.437%; for `O=C(COc1cccnc1)N1CCN(c2ccccc2)CC1` [CBK200210] it is 83.1266%; for `Cc1cc(NC(=O)CCC2CCCCC2)nc2c1c(=O)oc1ccccc12` [CBK291125] it is 101.497%.
Take `Oc1ccc(-c2cncc(Nc3cccc(Br)c3)n2)cc1` [CBK107803]: the “% of control remaining” value is on record as 134.893%.
To `Cc1ccnc2c1C(=O)C1(CC2)CCN(C(=O)Nc2ccc(F)cc2F)CC1` [CBK059553T] belongs 121.443%; to `C#CCOc1ccc(/C=N/N=C(\N)c2nonc2N)cc1OC` [CBK264765], 104.712%; to `COc1ccc2[nH]cc(CCNC(=O)N3CCCC(C(=O)O)C3)c2c1` (stereo not shown) [CBK161351], 141.734%.
Consider `CCn1c2ccccc2c2cc(CN3CCN(S(=O)(=O)c4ccc(NC(C)=O)cc4)CC3)ccc21` [CBK264248], for which the “% of control remaining” value worked out at 107.202%.
To `CCNc1nc(-c2ccc(SCC)cc2)cn2ccnc12` [CBK066489] belongs 117.698%.
To `Cc1ccc(-c2csc(NC(=O)c3ccc(S(=O)(=O)N4CCOCC4)cc3)n2)cc1` [CBK094024] belongs 116.24%; to `COc1ccc2c(c1)CC(=O)NC21CCN(CCCCC(C)C)CC1` [CBK039839], 109.999%.
The figure for `Cc1ccc(-n2ncc3c(=O)n(CC(=O)N4CCCCC4)cnc32)cc1` [CBK287532] is 188.897%; for `Cc1c(C(=O)CCN(C)C2CC=C(c3ccc(F)cc3)CC2)cnn1CCO` (stereo not shown) [CBK023799] it is 126.593%; for `CCc1nc2c(C(=O)NCCNC(C)=O)cnn2c(CC)c1Cc1ccc(Cl)cc1` [CBK165730] it is 110.77%.
As to `CCNC(=O)C1(Cc2ccc(-c3ccncc3)cc2)CCN(C(=O)CC2CCCCC2)CC1` [CBK285785], the “% of control remaining” value was determined as 120.81%.
To `Cn1nc(-c2ccc(F)cc2)cc1[C@H]1CN2CC[C@H]1C[C@@H]2CNC(=O)N1CCOCC1` [CBK289108] belongs 98.7547%; to `Nc1ncc(-c2ccc(CN3CCOCC3)cc2)nc1-c1ccc(O)cc1` [CBK123798], 98.8657%; to `CCOC(=O)c1c(-c2ccccc2)oc2ccc(OCC(=O)NN)cc12` [CBK263826], 118.932%.
`COc1cc2cc3c(N)c(C(=O)N4CCCc5ccccc54)sc3nc2cc1OC` [CBK117298]: the “% of control remaining” value is recorded as 105.197%.
The figure for `CC(C)(CC(=O)O)CC(=O)Nc1ccc2c(c1)ncn2CCc1ccccc1` [CBK299768] is 177.191%; for `c1ccc2c(c1)ccn2Cc1ccc(-c2nccnc2-c2nnn[nH]2)cc1` [CBK050821] it is 104.985%.
Turning to `Cc1cnn(CC(=O)NC(Cc2ccsc2)c2nc(C)cs2)c1` (stereo not shown) [CBK285151], the “% of control remaining” value is 124.183%.
Take `CC(C)(C)OC(=O)NC(C)(C)C(=O)N1C[C@H](C(=O)N2CCC3(CC2)CN(S(C)(=O)=O)c2ccccc23)[C@@H](c2nc3ccccc3s2)C1` [CBK136737]: the “% of control remaining” value is listed as 126.801%.
To `COc1ccc(Cl)cc1S(=O)(=O)N1CCC(C(=O)NCc2cccnc2)CC1` [CBK269878] belongs 137.077%; to `CC(C)NC(=O)Cn1ccc2ccnc(-c3cccs3)c21` [CBK284732], 116.625%.
For `O=C(CSc1nnc(Cc2cccs2)n1-c1ccccc1)Nc1ccc(F)c(Cl)c1` [CBK267589], the “% of control remaining” value is 122.062%.
The figure for `Cc1ncc(CN(C)C(C)C(=O)Nc2ccccc2N2CCCC2=O)s1` (stereo not shown) [CBK298274] is 99.276%.
To `CCc1nnc(NS(=O)(=O)c2ccc(NC(=S)Nc3ccc(F)cc3)cc2)s1` [CBK050037] belongs 42.7279%.
The figure for `Cc1ccc(C(C)(C)CC(C)NCc2ccc(Cl)cc2)o1` (stereo not shown) [CBK262873] is 142.546%.
As for `COCCC(=O)N[C@H]1CC[C@]2(C)CCC([C@H](C)C(=O)N3CCC(C)CC3)[C@H](O)[C@H]2[C@@H]1C` (stereo partly shown) [CBK289451], the “% of control remaining” value stood at 139.321%.
The figure for `CS(=O)(=O)Nc1cc(-c2noc([C@@H]3CCCN3Cc3ccc(S(C)(=O)=O)cc3)n2)ccn1` [CBK288890] is 115.967%.
For `Cc1ccc(C(=O)NC2CCCCCC2)cc1C` [CBK083665], the “% of control remaining” value was found to be 113.152%.
To `Cc1ccc(N2CCCC2=O)cc1S(=O)(=O)NC(c1ccccc1)c1ccccc1` [CBK286348] belongs 73.3467%.
The figure for `O=C(C1CCOCC1)N1CCCC[C@H]2CN(Cc3ccccc3)C[C@H]21` [CBK284839] is 142.258%; for `O=C(CCn1c(-c2ccncc2)cc2cccnc21)NC1CCCCC1` [CBK282621] it is 127.51%.
Consider `CCN1CCN(Cc2nc3c(c(=O)n(C)c(=O)n3C)n2Cc2c(F)cccc2Cl)CC1` [CBK269236], for which the “% of control remaining” value is 137.227%.
Regarding `CCOC(=O)C(NC(=O)CC)(Nc1cc(C)on1)C(F)(F)F` (stereo not shown) [CBK025721], the “% of control remaining” value was found to be 106.842%.
To `C/C(=N\O)c1oc2ccccc2c(=O)c1O` [CBK010642] belongs 129.887%; to `COc1cc(OC)c(NC(=O)CN(C)S(=O)(=O)c2cc(Cl)ccc2Cl)cc1Cl` [CBK267399], 157.673%; to `COc1cc(NC(=S)N2CCN(c3cc(Cl)ccc3C)CC2)cc(OC)c1` [CBK266252], 135.897%.
To `COc1ccc(C(=O)[C@H]2CCCN(C(=O)c3ccco3)C2)cc1` [CBK284327] belongs 78.261%; to `O=C1CC(N2CCN(Cc3ccc4c(c3)OCO4)CC2)C(=O)N1c1ccc(Cl)c(Cl)c1` (stereo not shown) [CBK074549], 90.5916%.
To `O=[N+]([O-])c1cc(S(=O)(=O)Nc2cccc3ccccc23)ccc1N1CCNCC1` [CBK015584C] belongs 88.1703%; to `CC(C)Nc1nc2ccccc2nc1OC1CCN(C)C1` (stereo not shown) [CBK113283], 100%.
For the molecule `CC(C)NC(=O)NC[C@H]1C[C@@H]2CCN1C[C@@H]2c1cc(-c2cccs2)nn1C` [CBK289103], the “% of control remaining” value is 107.689%.
The figure for `COc1ccccc1-c1cn2ccnc2c(N2CCCC2CO)n1` (stereo not shown) [CBK037266] is 129.045%; for `CCc1nnc(NC(=O)CSc2nc3c([nH]2)c(=O)n(C)c(=O)n3C)s1` [CBK025840] it is 135.434%.
